Experimental data taken from PMC12436592 (Nature Communications, 2025).
A number of entries come with more than one value. This list holds those alone. An entry can have further records. Values that stand side by side do not match, cause unknown; dose, time, organism, isomer or construct need not be as stated for each record.

Sequences of proteins named here, by UniProt entry; tags and fusion partners are left off.
UniProt Q64663, whole entry: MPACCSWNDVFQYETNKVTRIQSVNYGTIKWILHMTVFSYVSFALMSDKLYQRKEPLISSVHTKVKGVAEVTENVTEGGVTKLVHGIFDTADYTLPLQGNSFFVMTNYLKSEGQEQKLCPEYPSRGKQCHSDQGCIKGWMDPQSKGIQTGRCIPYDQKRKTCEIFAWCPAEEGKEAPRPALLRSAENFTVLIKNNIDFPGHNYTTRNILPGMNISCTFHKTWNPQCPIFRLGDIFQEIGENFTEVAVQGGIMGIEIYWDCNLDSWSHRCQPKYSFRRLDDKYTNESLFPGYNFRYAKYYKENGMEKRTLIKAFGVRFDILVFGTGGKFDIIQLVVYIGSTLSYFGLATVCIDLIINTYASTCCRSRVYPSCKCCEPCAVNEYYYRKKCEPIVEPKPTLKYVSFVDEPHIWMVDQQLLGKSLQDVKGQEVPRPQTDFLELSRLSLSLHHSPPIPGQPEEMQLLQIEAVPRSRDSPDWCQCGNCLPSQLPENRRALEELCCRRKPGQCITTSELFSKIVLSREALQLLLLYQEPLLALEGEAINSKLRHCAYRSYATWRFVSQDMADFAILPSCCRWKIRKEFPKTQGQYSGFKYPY
UniProt Q9Z1M0, whole entry: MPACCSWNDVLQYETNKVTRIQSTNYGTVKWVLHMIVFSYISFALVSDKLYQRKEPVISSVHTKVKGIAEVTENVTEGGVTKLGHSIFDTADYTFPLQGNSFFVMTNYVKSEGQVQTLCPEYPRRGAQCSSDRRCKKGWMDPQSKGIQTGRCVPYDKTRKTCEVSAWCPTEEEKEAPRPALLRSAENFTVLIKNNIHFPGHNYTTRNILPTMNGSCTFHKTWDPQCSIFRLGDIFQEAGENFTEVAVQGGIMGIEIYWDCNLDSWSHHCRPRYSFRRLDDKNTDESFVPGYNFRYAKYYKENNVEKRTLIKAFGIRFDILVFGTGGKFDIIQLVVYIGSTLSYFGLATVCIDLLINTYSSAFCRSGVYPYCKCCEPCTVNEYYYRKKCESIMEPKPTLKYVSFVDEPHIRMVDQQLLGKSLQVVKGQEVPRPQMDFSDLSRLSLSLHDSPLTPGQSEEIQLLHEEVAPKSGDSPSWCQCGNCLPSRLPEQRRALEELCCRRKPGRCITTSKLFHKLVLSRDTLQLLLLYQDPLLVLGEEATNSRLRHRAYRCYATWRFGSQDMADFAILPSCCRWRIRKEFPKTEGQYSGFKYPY

How the values were obtained:
rP2X7R = rP2X7R (Rattus norvegicus, UniProt Q64663); assay: TEVC dose response of ATP at rP2X7R in Xenopus oocytes; format: cell-based; conditions: [ATP] 11 μM
Method: (§1) Defolliculated Xenopus laevis oocytes were purchased from Ecocyte Bioscience and kept in Modified Barth’s Solution (88 mM NaCl, 1 mM KCl, 0.82 mM MgSO4, 0.33 mM Ca(NO3)2·4H2O, 0.41 mM CaCl2·2H2O, 2.4 mM NaHCO3, 5 mM HEPES) supplemented with amikacin 250 mg/L and gentamycin 150 mg/L. Oocytes were then injected with 50 nL of either full-length wild-type hP2X7R (40 ng/μL), mP2X7R (20 ng/μL), or rP2X7R (20 ng/μL) mRNA made from linearized pcDNA 3.1x according to the protocol provided in the mMessage mMachine kit (Invitrogen). Injected oocytes were allowed to express for ~20 h before recording was performed.
(§2) Data acquisition was performed using an Oocyte Clamp OC-725C amplifier and pClamp 8.2 software. Buffers were applied using a gravity-fed RSC-200 Rapid Solution Changer, flowing at ~5 mL/min. All experiments use Sutter filamented glass 10 cm in length with an inner diameter of 0.69 mm and an outer diameter of 1.2 mm to impale oocytes and clamp the holding voltage at −60 mV. Experiments were recorded in buffer containing 100 mM NaCl, 2.5 mM KCl, 0.1 mM EDTA, 0.1 mM flufenamic acid, and 5 mM HEPES at pH 7.4. All oocytes expressing P2X7R were facilitated with multiple applications of 100 μM ATP before any data was recorded. […]

mP2X7R = mP2X7R (Mus musculus, UniProt Q9Z1M0); assay: TEVC dose response of ATP at mP2X7R in Xenopus oocytes; format: cell-based; conditions: [ATP] 12.3 μM
Method: as §1, §2

Nc1ncnc2c1ncn2[C@@H]1O[C@H](COP(=O)(O)OP(=O)(O)OP(=O)(O)O)[C@@H](O)[C@H]1O [ATP]
Normalized response, rP2X7R (rP2X7R): 0.05, 0.1128, 0.1582
Normalized response, mP2X7R (mP2X7R): 0.03, 0.02, 0.05
